# For part of its entries the source gives two or more results. This list holds those alone. The source may hold further records. Values that stand side by side differ for a reason that is not stated; some may be repeats, others may stem from another dose, organism or construct than stated.
# Sequences of proteins named here, by UniProt entry; tags and fusion partners are left off.
# UniProt P09874, whole entry: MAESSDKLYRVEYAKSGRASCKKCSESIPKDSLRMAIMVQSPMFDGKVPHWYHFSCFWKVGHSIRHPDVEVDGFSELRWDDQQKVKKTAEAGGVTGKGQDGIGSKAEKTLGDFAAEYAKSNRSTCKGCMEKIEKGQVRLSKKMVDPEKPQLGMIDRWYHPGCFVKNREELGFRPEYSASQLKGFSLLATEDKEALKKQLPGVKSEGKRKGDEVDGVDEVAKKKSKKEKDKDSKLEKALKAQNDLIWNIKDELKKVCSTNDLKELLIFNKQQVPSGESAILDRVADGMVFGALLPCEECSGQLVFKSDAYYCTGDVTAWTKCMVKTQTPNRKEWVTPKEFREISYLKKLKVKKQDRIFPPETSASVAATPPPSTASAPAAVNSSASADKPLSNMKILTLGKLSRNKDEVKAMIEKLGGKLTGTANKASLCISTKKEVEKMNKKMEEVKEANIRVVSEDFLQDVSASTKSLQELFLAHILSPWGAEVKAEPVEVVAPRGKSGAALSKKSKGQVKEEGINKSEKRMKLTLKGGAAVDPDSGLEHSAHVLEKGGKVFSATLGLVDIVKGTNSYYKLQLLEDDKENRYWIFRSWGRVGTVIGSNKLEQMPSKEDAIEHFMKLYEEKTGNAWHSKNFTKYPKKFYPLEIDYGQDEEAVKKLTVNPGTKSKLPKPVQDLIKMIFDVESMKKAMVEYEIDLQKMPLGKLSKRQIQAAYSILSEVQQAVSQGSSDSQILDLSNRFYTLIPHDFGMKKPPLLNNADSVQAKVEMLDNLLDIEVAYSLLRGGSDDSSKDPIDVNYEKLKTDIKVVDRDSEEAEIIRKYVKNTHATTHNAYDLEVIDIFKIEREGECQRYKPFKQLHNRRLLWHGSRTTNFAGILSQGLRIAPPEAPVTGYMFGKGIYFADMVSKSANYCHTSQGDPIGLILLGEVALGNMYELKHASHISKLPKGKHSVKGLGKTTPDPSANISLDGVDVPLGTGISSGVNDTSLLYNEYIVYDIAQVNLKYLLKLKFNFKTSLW
# Molecular target: PARP1 (Homo sapiens, UniProt P09874)
# Experiment: Release of fluorescently labeled p18mer DNA (fluorescence polarization) upon NAD+ addition, KI determination for PARPi, with or without HPF1;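 note: PARP1 bound to fluorescein-tagged DNA and preincubated with inhibitor, then high NAD+ added, drop in fluorescence polarization tracked as the DNA dissociates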
# Type: biochemical
# Conditions: PARP1, +HPF1, single experiment
compound,measurement,value
COC1CCN(C(=O)c2cc(Cc3n[nH]c(=O)c4ccccc34)ccc2F)CC1,koff (est),"≥ 0.00068 s-1, ≥ 0.00058 s-1, ≥ 0.0004 s-1"

# — PMC7854685, “Histone Parylation factor 1 contributes to the inhibition of PARP1 by cancer drugs” (Nature Communications, 2021)
